From patent publication US10071097B2, “Molecular targets for the treatment of wounds, in particular chronic wounds” (URGO RECHERCHE INNOVATION ET DEVELOPPEMENT, priority 2013, dated 2018)
At least one structure is not confirmed: it was looked up by name or label, or the drawing left a doubt.

What was measured:
[1] = tested on: Normal Human Dermal Fibroblast (NHDF); experiment: ex vivo model of chronic wounds: NHDF differentiation in presence of chronic wound exudate; format: cell-based; settings: Trametinib in presence of exudate
Description: (§1) NHDF, isolated from human explants, were purchased from Promocell. NHDF were cultivated in DMEM-F12 (Invitrogen), supplemented with 10% FCS (Invitrogen, 5 μg/mL of insulin and 1 ng/mL of b-FGF (PromoKine)).
To collect exudates, two patients with mixed ulcers were recruited. For patient selection, it was decided to exclude any other comorbidity factor potentially involved in wound etiology: diabetes, peripheral arterial diseases, malnutrition. Exudates were collected from negative pressure therapy. All the exudates were centrifuged at 1,500×g for 3 minutes to remove cell debris. The supernatant was filtered and stored at −80° C. until use. Aliquots were used to determine protein concentration according to BCA method (Sigma).
For experiments, cells were deprived of insulin and b-FGF during 48 hours. Then, the cells were cultivated on collagen coated culture plates in DMEM-F12, supplemented with 10% FCS, 10 ng/mL of TGF-β1 (Promocell) for 4 days. Four points were tested in order to appreciate the effect of exudate on fibroblast differentiation: untreated cells (T−E−), fibroblasts treated with TGF-β1 (T+E−), cells treated with exudate (T−E+) and finally fibroblasts treated with TGF-β1 and exudate at the same time (T+E+).
For the chronic or non-healing wound model, chronic wound exudates were added to cell cultures (500 μg/mL of total proteins of exudate). The experiments that were performed are depicted in FIG. 1a): cells were either not treated (T−E−), either treated with TGFβ alone (T+E−), exudate alone (T−E+) or TGF-β and exudate (T+E+) for 4 days. The assays described previously were used to assess the level of differentiation. Chronic wound exudates decrease the expression of αSMA (mRNA, FIG. 1b). […] This is correlated to the fact that in chronic wounds, non-functional fibroblasts, also called pseudo-senescent fibroblasts, are present.

[2] = tested on: Normal Human Dermal Fibroblast (NHDF); experiment: fibroblast to myofibroblast differentiation of NHDF (markers αSMA, PI16, ACTC1 by RT-qPCR, αSMA positive cells); format: cell-based; settings: non treated fibroblasts, Trametinib 1 to 4 nM
Description: as §1
For experiments, cells were deprived of insulin and b-FGF during 48 hours. Then, the cells were cultivated on collagen coated culture plates in DMEM-F12, supplemented with 10% FCS, 10 ng/mL of TGF-β1 (Promocell) for 4 days. […]
After four days of experiment, treated fibroblasts were lysed with TRIzol Reagent (Invitrogen) and stored at −80° C. […] Total RNA was quantified on the NanoDrop 2000c Spectrophotometer (Thermo Scientific). […]
Quantitative real-time PCR (RT-qPCR) was done using 5 μL of 1:20 diluted cDNA on the LightCycler480 system (Roche) using Maxima SYBR Green qPCR Master Mix (Fermentas). […]
Cells grown in collagen coated culture dishes, and treated as previously described, were fixed with 4% paraformaldehyde (PFA) in PBS for 15 minutes and permeabilized with 2.5% Triton X-100 (Euromedex, 2000-B) in PBS for 3 minutes. […] To estimate the percentage of fibroblast differentiation due to the different treatments, the total number of cells per field was determined by the DAPI, and myofibroblasts, differentiated fibroblasts, were counted using the α-SMA staining. […]

## CC(=O)Nc1cccc(-n2c(=O)n(C3CC3)c(=O)c3c(Nc4ccc(I)cc4F)n(C)c(=O)c(C)c32)c1 [Trametinib]
[1]
  ACTC1 expression: increase
  PI16 expression: increase
  αSMA myofibroblast marker mRNA: increase
[2]
  basal level of αSMA (mRNA, RT-qPCR): increase of the basal level of αSMA
